Results: PMC10897489
No constants are given. Whether binding was seen depends on the method and setting. Binding seen in cells or lysates may run through a third protein.

Chains of the proteins cited; added tags and fusions are not shown. Lines headed by an entry give the natural chain unless they say otherwise; changes in a name come on top. A line that says so, or that is headed by a name, gives the form on record, which may keep a tag or linker.
UBAP2L F518L/F523G (YFP-tagged) (F8W726, form named): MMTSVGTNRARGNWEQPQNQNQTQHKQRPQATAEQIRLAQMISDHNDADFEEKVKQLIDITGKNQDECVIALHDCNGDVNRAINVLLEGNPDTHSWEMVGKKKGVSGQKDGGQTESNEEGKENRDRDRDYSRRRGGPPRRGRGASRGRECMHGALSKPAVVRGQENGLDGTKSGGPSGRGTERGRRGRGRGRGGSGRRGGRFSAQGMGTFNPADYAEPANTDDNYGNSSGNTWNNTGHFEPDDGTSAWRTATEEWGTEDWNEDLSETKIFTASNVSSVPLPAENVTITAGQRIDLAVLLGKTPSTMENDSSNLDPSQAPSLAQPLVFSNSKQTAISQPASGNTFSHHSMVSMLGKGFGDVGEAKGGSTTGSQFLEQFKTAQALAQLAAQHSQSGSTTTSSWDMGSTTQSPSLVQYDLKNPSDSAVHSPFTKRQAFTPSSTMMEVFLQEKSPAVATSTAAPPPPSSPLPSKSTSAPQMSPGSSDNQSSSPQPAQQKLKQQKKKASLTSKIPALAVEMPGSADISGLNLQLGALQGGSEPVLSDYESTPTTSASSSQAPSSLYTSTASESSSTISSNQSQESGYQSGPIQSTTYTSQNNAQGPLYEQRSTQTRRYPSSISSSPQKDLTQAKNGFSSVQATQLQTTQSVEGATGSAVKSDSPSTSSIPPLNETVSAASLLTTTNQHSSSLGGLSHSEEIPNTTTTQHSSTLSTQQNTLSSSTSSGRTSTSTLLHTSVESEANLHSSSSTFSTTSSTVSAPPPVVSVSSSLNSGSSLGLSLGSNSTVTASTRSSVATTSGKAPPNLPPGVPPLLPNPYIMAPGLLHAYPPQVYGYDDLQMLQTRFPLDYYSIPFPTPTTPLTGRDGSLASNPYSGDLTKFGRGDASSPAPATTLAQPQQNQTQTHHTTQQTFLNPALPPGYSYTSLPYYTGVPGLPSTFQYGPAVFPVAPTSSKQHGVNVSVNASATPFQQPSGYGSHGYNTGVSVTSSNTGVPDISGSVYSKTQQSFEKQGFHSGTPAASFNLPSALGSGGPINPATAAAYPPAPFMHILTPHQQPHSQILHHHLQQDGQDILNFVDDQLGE
UniProt Q13283: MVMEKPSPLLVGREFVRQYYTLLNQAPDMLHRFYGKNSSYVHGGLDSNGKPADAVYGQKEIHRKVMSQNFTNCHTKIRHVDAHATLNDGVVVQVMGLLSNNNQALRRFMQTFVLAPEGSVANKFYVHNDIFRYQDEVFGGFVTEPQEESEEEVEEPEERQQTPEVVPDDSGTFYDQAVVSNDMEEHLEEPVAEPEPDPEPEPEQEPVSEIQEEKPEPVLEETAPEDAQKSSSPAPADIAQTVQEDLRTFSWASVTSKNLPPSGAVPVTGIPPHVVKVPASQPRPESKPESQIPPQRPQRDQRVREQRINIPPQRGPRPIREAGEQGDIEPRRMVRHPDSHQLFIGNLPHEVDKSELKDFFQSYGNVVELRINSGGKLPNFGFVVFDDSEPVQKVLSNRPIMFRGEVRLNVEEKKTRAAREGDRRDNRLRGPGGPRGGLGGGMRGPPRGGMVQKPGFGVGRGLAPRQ

Molecular target: UBAP2L F518L/F523G (YFP-tagged) (human) (UniProt F8W726)
Assay: co-IP; YFP-tagged bait from transfected HeLa cells on GFP-trap beads, 1 h at 4 °C, washes with 150 mM NaCl, 50 mM Tris pH 7.4, 0.05% NP40; western blot

G3BP1 (endogenous) (from UniProt Q13283 1-466)
binding: no binding
